No constants are given. Whether binding was seen depends on the method and setting. In cells and extracts the contact can be indirect. These calls come from enrichment with a bait or labelling near it, and not all partners need be listed.

By UniProt entry, the sequences of proteins in these tests, tags left out.
UniProt P45974: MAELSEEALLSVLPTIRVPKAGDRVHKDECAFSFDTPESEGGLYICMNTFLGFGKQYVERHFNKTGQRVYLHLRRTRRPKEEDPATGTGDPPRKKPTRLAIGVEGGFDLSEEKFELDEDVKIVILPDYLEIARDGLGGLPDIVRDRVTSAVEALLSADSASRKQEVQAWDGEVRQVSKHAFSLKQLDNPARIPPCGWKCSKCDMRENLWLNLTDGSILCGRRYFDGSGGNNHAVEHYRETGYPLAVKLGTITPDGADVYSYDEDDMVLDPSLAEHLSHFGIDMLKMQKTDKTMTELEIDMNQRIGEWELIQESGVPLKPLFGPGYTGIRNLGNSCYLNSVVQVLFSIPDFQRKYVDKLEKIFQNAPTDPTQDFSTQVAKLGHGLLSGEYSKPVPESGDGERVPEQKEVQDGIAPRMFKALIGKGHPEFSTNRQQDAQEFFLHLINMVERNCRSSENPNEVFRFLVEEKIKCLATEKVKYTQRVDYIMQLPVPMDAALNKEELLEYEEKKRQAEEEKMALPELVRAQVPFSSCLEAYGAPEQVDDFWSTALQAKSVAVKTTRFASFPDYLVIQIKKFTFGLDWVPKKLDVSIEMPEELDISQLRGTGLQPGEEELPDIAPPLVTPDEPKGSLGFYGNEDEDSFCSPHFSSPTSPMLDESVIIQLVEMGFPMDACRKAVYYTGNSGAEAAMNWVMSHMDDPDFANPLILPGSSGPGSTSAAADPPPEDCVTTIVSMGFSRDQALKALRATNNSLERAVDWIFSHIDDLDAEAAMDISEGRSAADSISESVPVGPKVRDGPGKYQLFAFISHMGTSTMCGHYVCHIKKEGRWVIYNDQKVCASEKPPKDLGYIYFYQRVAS

For the assay, the target named is T1, common cytokine receptor γ chain (human (endogenous in Jurkat)) (UniProt P31785).
T1 sequence: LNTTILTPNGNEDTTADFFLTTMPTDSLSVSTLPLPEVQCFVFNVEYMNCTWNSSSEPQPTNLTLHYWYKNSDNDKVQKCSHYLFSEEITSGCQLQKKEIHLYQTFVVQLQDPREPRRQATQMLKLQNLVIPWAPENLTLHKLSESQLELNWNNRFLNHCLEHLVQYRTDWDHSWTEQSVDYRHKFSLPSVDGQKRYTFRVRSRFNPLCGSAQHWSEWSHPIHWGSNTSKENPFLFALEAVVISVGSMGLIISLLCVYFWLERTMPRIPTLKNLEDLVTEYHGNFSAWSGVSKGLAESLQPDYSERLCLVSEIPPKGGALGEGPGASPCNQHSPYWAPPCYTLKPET
Nature of the assay: affinity purification with mass spectrometry; Jurkat cells (1 × 10^8); endogenous γc immunoprecipitated with anti-γc, desalted, analyzed by mass spectrometry.

In the case of “SHP2 (from UniProt Q06124 1-593) (enzyme)”, the binding result is reported as “binds”. Next, “USP5 (from UniProt P45974 1-858) (enzyme)”: “binds”.

The record behind these values is PMC10709454.
